Percent effect of library compounds

From ChEMBL document CHEMBL3988442, “University of Dundee, Small-Polar-MMV Screening Library” (2021).

A: 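Growth of Mycobacterium tuberculosis over 4 days (cholesterol / DPPC medium with tyloxapol); the read-out is not stated. Compounds at 50 µM. Direction is inferred from retests: higher values go with more growth inhibition. Of about 69,000 compounds tested this way, about 370 (0.54%) reached 50% or more in at least one test.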
B: 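Whole-cell growth test on Mycobacterium tuberculosis, read after 3 days in glucose-containing 7H9 medium; the read-out is not stated. Compounds at 50 µM. Higher reads as more growth inhibition (inferred: compounds with an IC50 in retests scored well above the rest). Of about 69,000 compounds tested this way, about 760 (1.1%) reached 50% or more in at least one test.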

Values are the deposited “Percent Effect”, in %. How 0% and 100% were set is not recorded. Most values in the screen are low, and negative values occur. The compounds are a random part of those screened. Two or more numbers in one place are separate tests of the same structure; such repeats can differ widely.

* Cc1nc(C)n(CC2CCCN(CCNC(=O)OC(C)(C)C)C2)n1 (centres undefined) | A: -0.1429%; B: -18.35%
* Cn1ccc(C(=O)NCc2cccc(N3CCCCC3=O)c2)cc1=O | A: 1.482%; B: 13.21%
* O=C1CCc2cc(OCCN3CCc4cncnc4C3)ccc2N1 | A: 15.55%; B: 17.14%
* Cc1nc(C2CCCNC2)nc2c1CCCN2Cc1ccccn1.Cl.Cl (centres undefined) | A: 7.19%; B: 16.04%
* O=C(NCc1ccc(F)cc1F)C(c1cccnc1)N1CCOCC1 (centres undefined) | A: 20.11% and -1.805%; B: -0.9887%
* Cn1cccc1CNCc1nnc2n1CCCC2C(F)(F)F (centres undefined) | A: -20.71%; B: -14.01%
* COc1cc(NC(=O)C2CC(=O)N(c3cccc(F)c3)C2)ncn1 (centres undefined) | A: 16.4%; B: 4.433% and 17.57%
* CCn1nccc1CNC(=O)C(C)n1cc2c(n1)c(C)nn2C (centres undefined) | A: 15.11%; B: 12.17%
* O=C(O)C(F)(F)F.[H][C@@]12C[C@H](C(=O)N3CCOCC3)[C@@]([H])(CN(c3ncc(CC)cn3)C1)O2 | A: -24.85%; B: 4.351%
* O=C(CN1CCS(=O)(=O)CC1)NC1CCCc2ccccc21 (centres undefined) | A: -5.405%; B: 8.449%
* [H][C@@]12CS(=O)(=O)C[C@]1([H])N(Cc1cnn(-c3ccccc3Cl)c1)CCN2C | A: -1.887%; B: -2.841%
* O=C1CCCN1CCN1CC=C(c2cnn(C3CCS(=O)(=O)C3)c2)CC1 (centres undefined) | A: -5.594%; B: -14.25%
* CN(Cc1nccn1CC(F)(F)F)C(=O)c1ccc(F)cc1F | A: -0.0871%; B: -9.56% and -0.5296%
* c1ccc(Cn2ccnc2CNC2CCCOc3ccccc32)cc1 (centres undefined) | A: 24.63%; B: 34.85%
* CCn1cc(CNC(=O)CCn2ncc3c(Cl)cccc32)cn1 | A: -35.98%; B: -29.36%
* CNC(=O)c1ccc(C(=O)N2CCCC(n3ccnc3)C2)cn1 (centres undefined) | A: 16.67%; B: 11.63%
* Cc1nc(C)n(CC2CN(CCOc3cccc(F)c3)CCO2)n1 (centres undefined) | A: 14.68%; B: 23.06%
* CC(=O)N(Cc1noc(C)n1)C1CCN(CCOc2ccccc2)C1 (centres undefined) | A: -32.52%; B: -12.69%
* COc1ccc(CN(C)CC2(O)CCNC2)cc1 (centres undefined) | A: 0.3031% and -7.518%; B: 7.927%
* c1cnc(-c2nc(CN3CCC(c4ccn[nH]4)CC3)cs2)nc1 | A: -1.935%; B: -11.56%
* CCC(C)NC(=O)c1cc(S(N)(=O)=O)c(Br)s1 (centres undefined) | A: 8.518%; B: 25.29%
* CN(C(=O)CSc1ncc[nH]1)C1CC1 | A: -7.538% and -16.69%; B: -5.675%
* CCS(=O)(=O)N1CCN(c2cc(-n3cnc(C)c3C)nc(C)n2)CC1 | A: -7.306% and 12.98%; B: 50.4%
* Cc1cc(C)c(CNC(=O)NCC2COc3ccccc3C2)c(=O)[nH]1 (centres undefined) | A: 13.97%; B: 4.093%
* Cn1cccc1C1CCCN1C(=O)NCCCn1cccn1 (centres undefined) | A: 9.222%; B: -14.04%
* O=C(O)C(F)(F)F.O=C(O)C(F)(F)F.[H][C@@]12CN(Cc3ccncc3)C[C@]1([H])C(=O)N(c1cncnc1)C2 | A: -7.982%; B: -7.562% and -1.299%
* COc1ccccc1NC(=O)Cn1c(=O)nc(N)c2cc(C)sc21 | A: -6.004%; B: -10.72%
* O=C(c1nc(-c2ccc3cc[nH]c3c2)no1)N1CCCC1 | A: 4.603%; B: -3.647%

For reference, 4 entries once more:

compound	A	B
Cn1cccc1CNCc1nnc2n1CCCC2C(F)(F)F (centres undefined)	-20.71	-14.01
O=C(O)C(F)(F)F.[H][C@@]12C[C@H](C(=O)N3CCOCC3)[C@@]([H])(CN(c3ncc(CC)cn3)C1)O2	-24.85	4.351
CCC(C)NC(=O)c1cc(S(N)(=O)=O)c(Br)s1 (centres undefined)	8.518	25.29
Cc1nc(C)n(CC2CN(CCOc3cccc(F)c3)CCO2)n1 (centres undefined)	14.68	23.06